Data source: PubChem BioAssay AID1259254 (NCATS, 2017)
The deposit covers about 59,000 reagents; below is a random part of them. About 1,550 of all reagents (2.6%) were called active. 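G2 share is only a proxy for re-replication; each gene was hit by three separate siRNAs, and active genes were retested.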 The raw values are shown without normalisation. Unmarked entries are inactive. Reagents against one gene are numbered here. Not given: the amount of reagent.

Aim: 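Genome-wide screen for genes that prevent DNA re-replication in cancer cells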 (primary screen)
Cells: human HCT116 colorectal cancer cells
Reagents: single siRNA against human genes
Timing: 3 days
Measured: 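Imaged Hoechst DNA stain sorts each cell into a cycle phase by DNA amount; per plate, G2 fraction set to 0% for non-targeting and 100% for GMNN siRNA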
Direction: G2 robust z-score and G2 cells, % of GMNN control: higher = more G2 cells, more excess DNA replication; raw share of cells in G2: higher = larger share of cells with G2 DNA content
Hit rule: 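Active siRNAs have a G2 robust z of 5 or more median absolute deviations over the median, which in these data means about 38% or higher of GMNN control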

The opening 4 entries, to show the layout:
no.	target gene	reagent	G2 robust z-score	G2 cells, % of GMNN control	raw share of cells in G2 (%)
1	RNF43	1	1.73	15.2	9.03
2	RNF43	2	4.13	32.1	17.8
3	RNF43	3	2.94	23.7	11
4	LYRM1	1	-0.297	0.879	4.69

The list itself, from the start:
no.	target gene	reagent	G2 robust z-score	G2 cells, % of GMNN control	raw share of cells in G2 (%)
1	RNF43	1	1.73	15.2	9.03
2	RNF43	2	4.13	32.1	17.8
3	RNF43	3	2.94	23.7	11
4	LYRM1	1	-0.297	0.879	4.69
5	LYRM1	2	0.194	4.33	6.53
6	LYRM1	3	-0.388	0.241	3.11
7	NUDT9	1	-1.23	-5.66	1.63
8	NUDT9	2	-1.1	-4.77	3.79
9	NUDT9	3	-0.352	0.493	4.43
10	PLXND1	1	-0.0539	2.59	6.39
11	PLXND1	2	-0.728	-2.15	4.41
12	PLXND1	3	-1.02	-4.18	2.34
13	ANKRD7	1	0.444	6.09	6.75
14	ANKRD7	2	0.415	5.89	7.27
15	ANKRD7	3	3.94	30.7	12.8
16	RPS6KB2	1	-0.209	1.5	6.1
17	RPS6KB2	2	0.221	4.52	6.93
18	RPS6KB2	3	-0.41	0.0832	4.05
19	TCEA2	1	-1.32	-6.29	2.05
20	TCEA2	2	-1.05	-4.41	3
21	TCEA2	3	0.806	8.64	7.95
22	SCN2A	1	-0.212	1.48	5.83
23	SCN2A	2	0.261	4.8	6.41
24	SCN2A	3	-0.346	0.536	4.58
25	SAMD12	1	-0.808	-2.72	2.82
26	SAMD12	2	-0.303	0.833	3.85
27	SAMD12	3	-0.61	-1.33	4.24
28	ADRB3	1	-0.198	1.58	6.41
29	ADRB3	2	1.29	12	8.73
30	ADRB3	3	0.174	4.19	4.55
31	GALK1	1	-0.718	-2.09	4.92
32	GALK1	2	0.237	4.64	6.97
33	GALK1	3	0.186	4.27	5.53
34	MIR9-2HG	1	-1.09	-4.73	1.99
35	MIR9-2HG	2	-0.296	0.885	3.55
36	MIR9-2HG	3	2.01	17.1	8.49
37	PDGFRB	1	1.2	11.4	9.37
38	PDGFRB	2	-1.45	-7.21	2.98
39	PDGFRB	3	-0.388	0.238	4.11
40	SORCS1	1	-0.323	0.695	5.99
41	SORCS1	2	0.0818	3.54	5.82
42	SORCS1	3	2.53	20.8	13.9
43	RASSF5	1	-0.652	-1.62	3.61
44	RASSF5	2	1.45	13.1	9.65
45	RASSF5	3	0.531	6.7	8.22
46	DFFA	1	0.298	5.07	6.77
47	DFFA	2	0.27	4.87	6.77
48	DFFA	3	0.159	4.09	5.5
49	TFIP11	1	0.708	7.95	6.83
50	TFIP11	2	1.79	15.6	13.2
51	TFIP11	3	-0.901	-3.37	2.89
52	OTOR	1	0.927	9.49	8.09
53	OTOR	2	0.315	5.18	6.94
54	OTOR	3	1.99	17	8.41
55	DORIP1	1	1.08	10.6	8.34
56	DORIP1	2	3.41	27	11.4
57	DORIP1	3	-0.975	-3.89	0.681
58	COL11A1	1	-0.34	0.574	5.57
59	COL11A1	2	0.26	4.8	5.84
60	COL11A1	3	-0.407	0.106	3.56
61	APC2	1	-0.471	-0.347	6.34
62	APC2	2	2.98	24	11.6
63	APC2	3	-1.56	-8.01	2.22
64	RERGL	1	0.931	9.52	8.39
65	RERGL	2	0.224	4.55	6.29
66	RERGL	3	0.196	4.35	3.57
67	TMEM198	1	-0.452	-0.214	4.09
68	TMEM198	2	0.436	6.04	5.02
69	TMEM198	3	0.538	6.75	5.03
